Source: the supplement of paper PMC4604168 (melanoma cell lines)
The other results are listed elsewhere or left out. Many values rest on one well or one pass, so single values are uncertain.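 Imaging used 1,536-well plates; nuclei positive for cleaved PARP by antibody were divided by total DNA-stained nuclei to yield the apoptosis fraction. Doses for screening kept most cells viable, and cell lines differ markedly in resting and induced cleaved-PARP levels.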

Test system: G361
Test: cleaved PARP positive nuclei fraction relative to DMSO control; melanoma cells; higher = more apoptosis
Details: library dose: low library concentration; 72 h

Compound	cleaved PARP positive nuclei fraction
CC1(C)CCC(c2ccc(Cl)cc2)=C(CN2CCN(c3ccc(C(=O)NS(=O)(=O)c4ccc(N[C@H](CCN5CCOCC5)CSc5ccccc5)c(S(=O)(=O)C(F)(F)F)c4)cc3)CC2)C1 + Nc1nc(F)nc2c1ncn2[C@@H]1O[C@H](CO)[C@@H](O)[C@@H]1O [fludarabine] (first compound 0.4 µM, partner dose 0.2 µM)	157%
Cn1sc(=O)n(Cc2ccccc2)c1=O + C=CCNC1=C2C[C@@H](C)C[C@H](OC)[C@H](O)[C@@H](C)/C=C(\C)[C@H](OC(N)=O)[C@@H](OC)/C=C\C=C(/C)C(=O)NC(=CC1=O)C2=O [Tanespimycin] (first compound 0.4 µM, partner dose 0.002 µM)	97.5%
Cn1cnc2c(F)c(Nc3ccc(Br)cc3Cl)c(C(=O)NOCCO)cc21 [selumetinib] + COc1ccc2c(c1)CCC1C2CCC2(C)C(NCCCCCCN3C(=O)C=CC3=O)CCC12 [U73122] (first compound 0.015 µM, partner dose 0.4 µM)	47.8%
CCCCCCCCc1ccc(CCC(N)(CO)CO)cc1 [fingolimod] + CC(C)(C)c1cnc(CSc2cnc(NC(=O)C3CCNCC3)s2)o1 [SNS-032] (first compound 2 µM, partner dose 0.01 µM)	108%
NC(=O)c1ccc(N(C(N)=O)c2c(F)cccc2F)nc1-c1ccc(F)cc1F + COCC[n+]1c2c(n(Cc3cnccn3)c1C)C(=O)c1ccccc1C2=O [YM155] (first compound 0.4 µM, partner dose 0.0004 µM)	83%
